Common to all, as to assay: log2 fold change, soluble protein after heating vs DMSO (PISA); higher = thermal stabilisation; K562 lysate, 10 uM; active = over 0.2 and 3.5 SD of the protein, either way, in both replicates (recomputed)
Compound in assay [1]: NCC(=O)Nc1ccc(-n2nc(C(F)(F)F)cc2-c2ccc3c(ccc4ccccc43)c2)cc1
The procedure, abridged: (§1)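 To prepare the extract, K562 pellets were dounce-homogenised in PBS pH 7.4 with 1 mM MgCl2, giving crude material at 1 mg/mL protein. This was treated with 10 μM compound for 30 min, then heated in aliquots for 3 min over 48°C-58°C before pooling and addition of NP-40 to 0.5% at 4°C. Centrifugation at 21,000xg for 90 min left soluble protein in the supernatant, which TMTpro 16plex LC-MS/MS quantified with equalised channel sums. Results are log-two fold changes in thermal stability compared with solvent controls, from duplicates.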

Chains of the proteins cited; added tags and fusions are not shown. Lines headed by an entry give the natural chain unless they say otherwise; changes in a name come on top.
UniProt Q68DU8: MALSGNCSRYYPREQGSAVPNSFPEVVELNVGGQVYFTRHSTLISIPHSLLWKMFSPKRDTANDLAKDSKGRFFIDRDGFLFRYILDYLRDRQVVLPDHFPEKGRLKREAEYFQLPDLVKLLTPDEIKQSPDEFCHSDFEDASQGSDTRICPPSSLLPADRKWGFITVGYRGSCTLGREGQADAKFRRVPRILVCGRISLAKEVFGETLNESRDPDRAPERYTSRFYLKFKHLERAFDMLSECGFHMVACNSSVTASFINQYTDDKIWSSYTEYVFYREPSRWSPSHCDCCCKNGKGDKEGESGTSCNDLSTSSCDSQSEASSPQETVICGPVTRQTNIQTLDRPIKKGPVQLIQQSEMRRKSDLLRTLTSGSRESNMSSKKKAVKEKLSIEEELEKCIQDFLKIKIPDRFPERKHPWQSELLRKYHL
UniProt Q14643, whole entry, looked up: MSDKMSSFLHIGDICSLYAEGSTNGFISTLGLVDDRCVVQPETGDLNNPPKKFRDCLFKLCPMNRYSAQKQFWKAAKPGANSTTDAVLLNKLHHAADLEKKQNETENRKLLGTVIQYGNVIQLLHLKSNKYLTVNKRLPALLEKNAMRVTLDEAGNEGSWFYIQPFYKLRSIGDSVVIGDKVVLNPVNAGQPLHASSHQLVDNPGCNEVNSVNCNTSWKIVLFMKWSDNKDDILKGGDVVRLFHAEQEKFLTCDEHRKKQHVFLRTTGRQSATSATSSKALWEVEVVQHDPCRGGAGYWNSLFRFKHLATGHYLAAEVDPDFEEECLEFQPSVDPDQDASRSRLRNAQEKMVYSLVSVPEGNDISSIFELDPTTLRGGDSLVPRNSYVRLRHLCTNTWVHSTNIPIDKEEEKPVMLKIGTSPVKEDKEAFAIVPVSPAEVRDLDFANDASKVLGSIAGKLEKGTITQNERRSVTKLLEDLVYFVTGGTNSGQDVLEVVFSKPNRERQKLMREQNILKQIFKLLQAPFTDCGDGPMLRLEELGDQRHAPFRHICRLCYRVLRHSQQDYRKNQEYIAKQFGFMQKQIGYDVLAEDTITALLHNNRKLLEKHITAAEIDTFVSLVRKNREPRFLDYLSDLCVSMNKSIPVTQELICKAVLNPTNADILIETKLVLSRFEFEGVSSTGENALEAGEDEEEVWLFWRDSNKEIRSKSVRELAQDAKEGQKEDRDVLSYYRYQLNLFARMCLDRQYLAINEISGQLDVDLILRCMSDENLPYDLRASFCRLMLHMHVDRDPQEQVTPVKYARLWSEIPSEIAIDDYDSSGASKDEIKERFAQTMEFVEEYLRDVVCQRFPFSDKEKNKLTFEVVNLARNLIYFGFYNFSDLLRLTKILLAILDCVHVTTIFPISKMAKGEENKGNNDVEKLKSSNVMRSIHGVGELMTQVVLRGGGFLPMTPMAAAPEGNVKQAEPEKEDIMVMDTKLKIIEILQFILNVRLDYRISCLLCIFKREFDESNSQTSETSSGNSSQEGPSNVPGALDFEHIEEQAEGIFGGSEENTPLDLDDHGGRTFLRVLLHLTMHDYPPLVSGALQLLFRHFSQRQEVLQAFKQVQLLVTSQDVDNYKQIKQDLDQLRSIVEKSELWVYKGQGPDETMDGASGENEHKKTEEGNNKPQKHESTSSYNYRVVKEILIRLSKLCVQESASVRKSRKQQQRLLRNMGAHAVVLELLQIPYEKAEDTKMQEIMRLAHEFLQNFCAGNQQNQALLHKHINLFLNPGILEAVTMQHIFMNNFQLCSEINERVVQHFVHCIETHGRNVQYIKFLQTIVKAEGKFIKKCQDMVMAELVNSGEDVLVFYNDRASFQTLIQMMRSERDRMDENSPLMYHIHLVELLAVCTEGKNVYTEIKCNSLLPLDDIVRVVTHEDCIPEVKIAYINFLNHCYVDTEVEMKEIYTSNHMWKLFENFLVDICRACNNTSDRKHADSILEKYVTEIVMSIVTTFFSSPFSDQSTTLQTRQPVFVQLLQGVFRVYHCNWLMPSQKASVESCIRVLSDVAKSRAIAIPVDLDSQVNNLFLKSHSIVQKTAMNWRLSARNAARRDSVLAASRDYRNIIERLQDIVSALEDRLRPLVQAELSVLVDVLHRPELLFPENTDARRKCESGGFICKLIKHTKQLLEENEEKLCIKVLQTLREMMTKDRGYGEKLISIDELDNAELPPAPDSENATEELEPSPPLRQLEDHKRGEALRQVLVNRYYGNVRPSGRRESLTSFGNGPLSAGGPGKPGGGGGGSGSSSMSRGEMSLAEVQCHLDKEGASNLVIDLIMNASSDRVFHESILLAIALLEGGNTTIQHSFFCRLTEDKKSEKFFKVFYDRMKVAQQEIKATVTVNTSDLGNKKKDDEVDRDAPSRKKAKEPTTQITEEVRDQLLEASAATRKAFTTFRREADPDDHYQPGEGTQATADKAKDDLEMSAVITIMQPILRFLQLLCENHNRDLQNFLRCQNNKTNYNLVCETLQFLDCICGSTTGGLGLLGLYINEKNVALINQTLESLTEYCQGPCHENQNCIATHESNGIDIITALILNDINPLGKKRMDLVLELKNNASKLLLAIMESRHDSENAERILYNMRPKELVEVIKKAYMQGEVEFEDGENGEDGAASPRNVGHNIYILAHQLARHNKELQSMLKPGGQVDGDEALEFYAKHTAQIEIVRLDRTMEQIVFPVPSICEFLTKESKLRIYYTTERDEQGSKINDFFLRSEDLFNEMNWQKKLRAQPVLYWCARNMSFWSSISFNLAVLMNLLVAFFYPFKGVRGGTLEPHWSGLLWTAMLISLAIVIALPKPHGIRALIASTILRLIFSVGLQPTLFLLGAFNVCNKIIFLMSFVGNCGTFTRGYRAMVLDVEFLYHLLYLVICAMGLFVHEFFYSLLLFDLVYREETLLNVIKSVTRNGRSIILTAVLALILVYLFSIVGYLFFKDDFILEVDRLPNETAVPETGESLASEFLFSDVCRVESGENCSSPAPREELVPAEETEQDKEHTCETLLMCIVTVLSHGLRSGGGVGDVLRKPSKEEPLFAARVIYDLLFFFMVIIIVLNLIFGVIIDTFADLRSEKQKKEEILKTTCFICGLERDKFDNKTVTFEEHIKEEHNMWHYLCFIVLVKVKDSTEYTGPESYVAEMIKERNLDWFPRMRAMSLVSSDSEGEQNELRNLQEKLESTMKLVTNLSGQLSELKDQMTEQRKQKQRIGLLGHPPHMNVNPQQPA
UniProt Q92830, whole entry, looked up: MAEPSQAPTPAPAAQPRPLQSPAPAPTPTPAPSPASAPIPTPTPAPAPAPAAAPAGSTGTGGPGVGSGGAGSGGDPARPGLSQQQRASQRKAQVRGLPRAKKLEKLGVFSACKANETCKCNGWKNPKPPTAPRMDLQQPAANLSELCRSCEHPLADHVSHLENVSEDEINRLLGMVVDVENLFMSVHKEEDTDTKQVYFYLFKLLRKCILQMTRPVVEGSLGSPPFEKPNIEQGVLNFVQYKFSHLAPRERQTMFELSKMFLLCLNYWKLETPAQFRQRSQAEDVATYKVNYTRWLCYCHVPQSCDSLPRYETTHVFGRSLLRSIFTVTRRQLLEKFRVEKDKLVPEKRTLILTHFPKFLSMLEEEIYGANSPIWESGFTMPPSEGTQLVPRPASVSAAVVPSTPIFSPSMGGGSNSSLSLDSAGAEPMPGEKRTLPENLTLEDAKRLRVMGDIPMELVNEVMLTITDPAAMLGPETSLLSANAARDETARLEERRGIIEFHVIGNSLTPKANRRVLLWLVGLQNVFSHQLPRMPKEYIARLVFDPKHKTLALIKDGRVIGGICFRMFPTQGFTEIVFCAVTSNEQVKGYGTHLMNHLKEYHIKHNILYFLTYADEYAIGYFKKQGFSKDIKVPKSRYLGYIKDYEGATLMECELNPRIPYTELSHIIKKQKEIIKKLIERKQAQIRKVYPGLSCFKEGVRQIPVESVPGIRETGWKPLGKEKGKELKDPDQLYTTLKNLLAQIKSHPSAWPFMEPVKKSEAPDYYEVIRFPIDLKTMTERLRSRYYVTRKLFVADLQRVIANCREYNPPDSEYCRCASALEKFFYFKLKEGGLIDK
UniProt P05412, whole entry, looked up: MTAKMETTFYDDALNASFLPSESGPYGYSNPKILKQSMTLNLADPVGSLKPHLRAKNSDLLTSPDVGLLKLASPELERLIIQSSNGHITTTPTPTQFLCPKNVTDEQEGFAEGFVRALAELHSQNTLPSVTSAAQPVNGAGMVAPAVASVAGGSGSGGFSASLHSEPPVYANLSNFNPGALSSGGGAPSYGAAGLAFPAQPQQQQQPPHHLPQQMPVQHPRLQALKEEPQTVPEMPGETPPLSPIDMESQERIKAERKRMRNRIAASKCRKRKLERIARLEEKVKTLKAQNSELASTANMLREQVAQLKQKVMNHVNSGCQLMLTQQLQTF
UniProt P28290: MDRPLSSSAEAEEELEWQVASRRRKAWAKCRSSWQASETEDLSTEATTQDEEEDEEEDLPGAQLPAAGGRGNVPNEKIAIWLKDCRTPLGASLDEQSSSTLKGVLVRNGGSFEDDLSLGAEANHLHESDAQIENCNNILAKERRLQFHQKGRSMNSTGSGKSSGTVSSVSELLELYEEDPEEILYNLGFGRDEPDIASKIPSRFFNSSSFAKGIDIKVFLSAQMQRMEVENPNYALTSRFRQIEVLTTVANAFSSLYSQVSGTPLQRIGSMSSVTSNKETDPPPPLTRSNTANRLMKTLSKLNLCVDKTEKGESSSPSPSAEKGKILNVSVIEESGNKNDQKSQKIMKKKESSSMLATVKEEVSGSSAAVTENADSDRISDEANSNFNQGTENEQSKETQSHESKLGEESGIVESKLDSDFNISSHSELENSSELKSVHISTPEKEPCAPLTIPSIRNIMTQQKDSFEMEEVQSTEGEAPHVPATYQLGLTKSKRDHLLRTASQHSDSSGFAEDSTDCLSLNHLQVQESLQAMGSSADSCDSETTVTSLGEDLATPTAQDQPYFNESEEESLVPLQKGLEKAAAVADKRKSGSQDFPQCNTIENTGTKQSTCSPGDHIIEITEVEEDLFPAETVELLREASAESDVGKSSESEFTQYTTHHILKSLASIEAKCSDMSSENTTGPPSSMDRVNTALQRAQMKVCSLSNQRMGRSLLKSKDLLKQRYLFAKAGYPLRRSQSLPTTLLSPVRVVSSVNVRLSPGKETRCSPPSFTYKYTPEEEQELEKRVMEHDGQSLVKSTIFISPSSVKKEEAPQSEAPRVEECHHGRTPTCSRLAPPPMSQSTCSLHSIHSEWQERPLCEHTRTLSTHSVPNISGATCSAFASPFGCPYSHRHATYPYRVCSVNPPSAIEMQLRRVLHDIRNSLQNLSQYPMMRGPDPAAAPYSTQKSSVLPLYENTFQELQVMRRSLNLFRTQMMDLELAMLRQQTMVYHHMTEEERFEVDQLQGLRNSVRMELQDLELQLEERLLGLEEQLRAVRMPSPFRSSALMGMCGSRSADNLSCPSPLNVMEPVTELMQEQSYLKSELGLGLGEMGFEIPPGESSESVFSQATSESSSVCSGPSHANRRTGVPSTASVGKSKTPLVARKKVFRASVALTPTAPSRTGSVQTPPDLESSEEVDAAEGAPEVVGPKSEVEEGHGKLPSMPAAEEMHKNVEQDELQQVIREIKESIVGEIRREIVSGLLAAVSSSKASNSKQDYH
UniProt Q63ZY3: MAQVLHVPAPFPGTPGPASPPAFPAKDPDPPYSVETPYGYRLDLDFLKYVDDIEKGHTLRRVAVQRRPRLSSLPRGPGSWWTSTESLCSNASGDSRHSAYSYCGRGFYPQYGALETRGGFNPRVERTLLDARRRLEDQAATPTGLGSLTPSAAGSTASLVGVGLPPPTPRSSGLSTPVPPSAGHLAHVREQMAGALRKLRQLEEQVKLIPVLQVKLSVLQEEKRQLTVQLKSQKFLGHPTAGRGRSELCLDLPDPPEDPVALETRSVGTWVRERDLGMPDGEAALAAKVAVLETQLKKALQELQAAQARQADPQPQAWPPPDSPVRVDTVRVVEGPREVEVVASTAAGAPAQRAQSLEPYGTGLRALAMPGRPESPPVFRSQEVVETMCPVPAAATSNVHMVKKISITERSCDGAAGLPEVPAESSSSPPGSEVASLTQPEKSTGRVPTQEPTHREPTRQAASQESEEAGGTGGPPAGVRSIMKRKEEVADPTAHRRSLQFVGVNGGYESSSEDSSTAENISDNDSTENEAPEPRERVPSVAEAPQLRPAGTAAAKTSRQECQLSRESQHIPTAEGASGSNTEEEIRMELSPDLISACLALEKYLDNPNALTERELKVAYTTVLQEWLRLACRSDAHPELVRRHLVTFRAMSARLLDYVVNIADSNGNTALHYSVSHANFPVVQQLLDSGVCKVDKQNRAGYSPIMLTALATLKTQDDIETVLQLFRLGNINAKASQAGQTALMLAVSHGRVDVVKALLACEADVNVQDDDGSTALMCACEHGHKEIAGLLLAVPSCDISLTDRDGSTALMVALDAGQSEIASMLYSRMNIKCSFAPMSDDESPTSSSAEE

Compound in a further assay: c1cn2cc(-c3ccc4cn[nH]c4c3)nc(Nc3ccc(N4CCOCC4)cc3)c2n1 [entospletinib]
The procedure, abridged:
as §1

Compound in assay [2]: O=C1NC(=O)C(c2cnc3ccccn23)=C1c1cn2c3c(cc(F)cc13)CN(C(=O)N1CCCCC1)CC2
The procedure, abridged:
as §1

Compound in the next assay: O=C(CCCCCCC(=O)Nc1ccccc1)NO [vorinostat]
The procedure, abridged:
as §1

Compound in another assay: O=C(O)c1ccc2c(c1)nc(Nc1cccc(Cl)c1)c1ccncc12 [silmitasertib]
The method in brief:
as §1

This is one part of the list.

As for ITGB1BP2 (UniProt Q9UKP3), the log2 fold change was inactive: 0.053 in assay [1] and inactive: 0.107 with entospletinib.

For the target ITGB3BP isoform 5 (UniProt Q13352), the log2 fold change in assay [2] is inactive: -0.263.

Regarding INTS6L (UniProt Q5JSJ4), the log2 fold change was inactive: -0.01 in the assay with vorinostat and inactive: 0.003 with silmitasertib.

In the case of KCTD16 (UniProt Q68DU8), in assay [2], the log2 fold change was inactive: 0.047.

Turning to ITPRIP (UniProt Q8IWB1), the log2 fold change with vorinostat is inactive: -0.33; with silmitasertib, inactive: 0.095.

Consider KALRN (UniProt O60229), for which the log2 fold change in assay [2] was inactive: -0.042.

For KCTD13 (UniProt Q8WZ19), the log2 fold change with vorinostat is inactive: -0.193; with silmitasertib it was inactive: 0.163; in assay [2], inactive: 0.004.

On to KCTD2 (UniProt Q14681), for which the log2 fold change in assay [1] was inactive: 0.185; in assay [2], inactive: -0.056; with entospletinib, inactive: -0.225.

For the target ITPR2 (UniProt Q14571), the log2 fold change with vorinostat was active: -0.965; with silmitasertib it was inactive: 0.024.

Turning to IRS2 (UniProt Q9Y4H2), the results for the log2 fold change (with vorinostat; with silmitasertib; in assay [2]) were inactive: -0.034, inactive: -0.065 and inactive: 0.14, respectively.

Take ITPR3 (UniProt Q14573): the log2 fold change with vorinostat was inactive: 0.297; with silmitasertib, inactive: -0.277; in assay [2] it was inactive: 0.009.

In the case of JMY (UniProt Q8N9B5), the log2 fold change was inactive: 0.345 in the assay with vorinostat, inactive: 0.398 with silmitasertib and inactive: 0 in assay [2].

Regarding ITM2C (UniProt Q9NQX7), the log2 fold change with vorinostat was inactive: 0.053; with silmitasertib, inactive: -0.019; in assay [2] it was inactive: -0.022; with entospletinib, inactive: 0.004.

On to JADE2 (UniProt Q9NQC1), for which, in the assay with entospletinib, the log2 fold change is inactive: 0.073.

For the target ITIH3 (UniProt Q06033), the log2 fold change is inactive: 0.203 with vorinostat, inactive: -0.054 with silmitasertib and inactive: -0.033 in the assay with entospletinib.

For KAZN isoform 3 (UniProt Q674X7), the figures for the log2 fold change (with vorinostat; with silmitasertib; in assay [2]) were inactive: -0.015, inactive: -0.058 and inactive: -0.146, respectively.

In the case of NA (UniProt J3KR12), the log2 fold change in assay [1] is inactive: 0.143; in the assay with entospletinib, inactive: -0.136.

KANSL2 (UniProt Q9H9L4): the log2 fold change with vorinostat was inactive: -0.091; in the assay with silmitasertib it was inactive: -0.204; in assay [2] it was inactive: 0.089.

Turning to KCNN4 (UniProt O15554), the log2 fold change was inactive: 0.215 in the assay with vorinostat, inactive: 0.122 with silmitasertib and inactive: -0.107 in assay [2].

For KDM2B (UniProt Q8NHM5), the log2 fold change with vorinostat is inactive: 0.143; in the assay with silmitasertib it was inactive: -0.083; in assay [2] it was inactive: -0.256; with entospletinib, inactive: -0.131.

For the target ITIH2 (UniProt P19823), the log2 fold change in assay [1] was inactive: 0.04; in assay [2], inactive: 0.027; in the assay with entospletinib it was inactive: -0.023.

For JAK1 (UniProt P23458), the log2 fold change is inactive: -0.004 in assay [1], inactive: 0.032 in assay [2] and inactive: -0.02 with entospletinib.

With JCHAIN (UniProt P01591), the log2 fold change with vorinostat was inactive: 0.033; with silmitasertib it was inactive: 0.027; in assay [2], inactive: 0.538.

As to ITPR1 (UniProt Q14643), the log2 fold change was inactive: 0 in assay [1], inactive: -0.126 in assay [2] and inactive: 0.162 in the assay with entospletinib.

In the case of KAT2A (UniProt Q92830), the values for the log2 fold change (in assay [2]; in the assay with entospletinib) were inactive: 0.045 and inactive: -0.023, respectively.

On to ISL2 (UniProt Q96A47), for which the figures for the log2 fold change (with vorinostat; with silmitasertib; in assay [2]) were inactive: -0.026, inactive: 0.04 and inactive: 0.179, respectively.

Consider KCNH2 (UniProt Q12809), for which the log2 fold change is inactive: 0.26 in the assay with vorinostat, inactive: -0.116 with silmitasertib and inactive: 0.019 in assay [2].

With KANSL1 (UniProt Q7Z3B3), the log2 fold change was inactive: -0.108 with vorinostat, inactive: -0.03 with silmitasertib and inactive: 0 with entospletinib.

On to JUN (UniProt P05412), for which the log2 fold change with vorinostat is inactive: 0.028; with silmitasertib, inactive: -0.05; in assay [2], inactive: 0.023; in the assay with entospletinib, inactive: -0.105.

As for IRF9 (UniProt Q00978), the log2 fold change with vorinostat was inactive: -0.148; with silmitasertib it was inactive: 0.055.

Turning to JAG2 (UniProt Q9Y219), the log2 fold change with vorinostat was inactive: -0.095; with silmitasertib it was inactive: -0.067; in assay [2], inactive: 0.037; with entospletinib, inactive: -0.062.

Regarding ITPRID2 (UniProt P28290), the log2 fold change in the assay with vorinostat is inactive: -0.049; with silmitasertib, inactive: 0; with entospletinib it was inactive: 0.05.

As for JOSD1 (UniProt Q15040), the log2 fold change with vorinostat was inactive: -0.191; with silmitasertib it was inactive: 0.15.

As for KANK2 isoform 2 (UniProt Q63ZY3), the results for the log2 fold change (in assay [1]; in the assay with entospletinib) were inactive: 0.089 and inactive: 0.208, respectively.

As to JMJD7 (UniProt P0C870), the log2 fold change with vorinostat was inactive: 0.262; with silmitasertib, inactive: -0.014; in the assay with entospletinib, inactive: -0.235.

(Values after the supplement of paper PMC10849652.)
